The results in this text go back to PMC5996148.

By UniProt entry, the sequences of proteins in these tests, tags left out. Where a name states a change or a piece, a line headed by the entry shows the natural chain unless it says otherwise.
UniProt Q8NC51: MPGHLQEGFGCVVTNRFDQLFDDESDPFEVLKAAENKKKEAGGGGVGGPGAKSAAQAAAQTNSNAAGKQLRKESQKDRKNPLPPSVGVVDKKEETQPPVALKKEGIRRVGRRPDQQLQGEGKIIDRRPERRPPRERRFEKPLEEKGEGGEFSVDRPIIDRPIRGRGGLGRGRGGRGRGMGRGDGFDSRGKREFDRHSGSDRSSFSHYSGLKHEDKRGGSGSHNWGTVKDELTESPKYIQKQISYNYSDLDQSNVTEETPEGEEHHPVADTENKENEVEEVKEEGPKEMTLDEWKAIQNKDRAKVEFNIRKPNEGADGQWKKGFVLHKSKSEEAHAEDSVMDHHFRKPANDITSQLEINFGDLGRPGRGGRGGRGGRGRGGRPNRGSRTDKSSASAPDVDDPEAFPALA

Several values for one entry are separate records, joined by “and”; a condition that tells them apart may be missing. Equal values may be shown once. The list shows a part of the results. For some assays here: The exact form of the protein is not confirmed.

Test systems include SAPS2 (human); SAR1A (human); SAR1B (human); SCGB1A1 (human); SCGB1C1 (human); SCP2 (human); SCRN2 (human); SDC1 (human); SDC4 (human); SDSL (human); SEC13L1 (human); SELPLG (human); SENP8 (human); SEPHS2 (human); SEPT11 (human); SEPT4 (human); SEPT6 (human); SEPT9 (human).
Holding throughout (experiment): protein microarray (ProtoArray v5.0), streptavidin-Alexa Fluor 647
Holding throughout (details): 3'-biotin; 20 mM Tris (pH 7.5), 5 mM MgCl2, 100 mM KCl, 0.1% Tween-20, A/T-rich and random oligonucleotide blockers; temperature not stated; high values mean tight binding

The target in a further assay is T1, SCEL (UniProt O95171).
T1 sequence: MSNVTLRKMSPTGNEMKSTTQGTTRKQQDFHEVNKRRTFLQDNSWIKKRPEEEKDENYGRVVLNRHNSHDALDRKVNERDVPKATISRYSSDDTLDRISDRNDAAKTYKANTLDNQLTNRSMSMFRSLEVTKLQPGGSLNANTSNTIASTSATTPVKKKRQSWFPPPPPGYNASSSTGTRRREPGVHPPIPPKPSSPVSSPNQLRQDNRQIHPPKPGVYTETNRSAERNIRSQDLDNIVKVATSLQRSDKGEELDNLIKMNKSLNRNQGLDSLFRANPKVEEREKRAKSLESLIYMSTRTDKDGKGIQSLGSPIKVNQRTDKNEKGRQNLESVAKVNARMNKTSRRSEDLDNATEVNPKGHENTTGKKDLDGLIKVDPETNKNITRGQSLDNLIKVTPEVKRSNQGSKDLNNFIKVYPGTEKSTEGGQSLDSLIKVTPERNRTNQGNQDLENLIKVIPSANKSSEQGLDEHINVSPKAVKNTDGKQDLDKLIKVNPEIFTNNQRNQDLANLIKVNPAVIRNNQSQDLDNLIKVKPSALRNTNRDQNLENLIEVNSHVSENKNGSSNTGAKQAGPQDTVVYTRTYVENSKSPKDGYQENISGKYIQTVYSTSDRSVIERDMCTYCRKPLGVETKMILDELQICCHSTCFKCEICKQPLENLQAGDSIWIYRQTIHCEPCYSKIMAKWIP

The next assay deals with SERBP1 (UniProt Q8NC51).

As to “GGGGACAGGGGTATGGGGAGGGG [G4-3 biotinylated (CtG)]”, the binding signal in the assay with SAPS2 (human) was -0.336 z-score; in the assay with SAR1A (human), -0.336 z-score; in the assay on SAR1B (human) it was -0.338 z-score; with SCEL, 3.19 z-score; with SCGB1A1 (human), -0.341 z-score; with SCGB1C1 (human) it was -0.34 z-score. The binding signal was -0.33 z-score with SCP2 (human); -0.322 z-score in the assay with SCRN2 (human); -0.322 z-score with SDC1 (human); -0.308 z-score in the assay with SDC4 (human); -0.325 z-score with SDSL (human); -0.34 z-score with SEC13L1 (human). In addition, the binding signal in the assay with SELPLG (human) is -0.337 z-score; in the assay with SENP8 (human), -0.348 z-score; in the assay with SEPHS2 (human) it was -0.337 z-score; with SEPT11 (human), -0.337 z-score; in the assay on SEPT4 (human), -0.3 z-score; in the assay with SEPT6 (human), -0.326 z-score. Further, the binding signal is -0.327 z-score in the assay on SEPT9 (human); 3.4 z-score and 3.76 z-score in the assay with SERBP1.
